Values from PubChem BioAssay AID1259308 (NCATS, 2017)

- Assay: 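Genes whose loss raises luciferase production in HEK293 cells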 (primary screen)
- System: human HEK293 embryonic kidney cells stably expressing firefly luciferase (HEK-CMV-Luc2-Hygro)
- Reagents: single siRNA against human genes, 0.8 pmol siRNA per well
- Time to read-out: 72 h
- Measured: 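Reporter luminescence and viable-cell signal on separate replicate plates, given as percent of non-targeting control and median/MAD z-scores, plus per-cell luciferase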
- Scale: total luciferase, z-score: higher = more reporter protein produced
- Hit rule: 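Active when the median/MAD z-score for overall luciferase is greater than 3; a gene was taken forward for validation with new siRNAs if at least two of its three siRNAs passed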
- Calls: active = raised luciferase; inactive = no rise
This is one part, drawn at random, of about 59,000 reagents tested. Of all reagents, about 1,510 (2.6%) were called active. 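Calls use total luciferase alone and ignore viability, so some active siRNAs may act by altering cell number.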 Unmarked entries are inactive. Reagents against one gene are numbered here. Further read-outs or replicates are left out here.

Against FCAR #1, the values are total luciferase, z-score 0.349.
Against FCAR #2, the entry reads total luciferase, z-score -0.118.
For FCAR #3 the deposit lists total luciferase, z-score 0.0832.
With knock-down of COX20 #1, the record shows total luciferase, z-score -0.774.
With knock-down of COX20 #2, the screen gave total luciferase, z-score -0.287.
COX20 #3 scored total luciferase, z-score -1.3.
For ITFG1 #1 the deposit lists total luciferase, z-score 2.17.
Depletion of ITFG1 #2 resulted in: total luciferase, z-score -0.312.
With knock-down of ITFG1 #3 the results were total luciferase, z-score 0.0996.
Against HRNR #1, the values are total luciferase, z-score 2.26.
Knock-down of HRNR #2 came out at: total luciferase, z-score 1.69.
HRNR #3 gave total luciferase, z-score 0.00192.
After knock-down of LIG3 #1, the screen gave total luciferase, z-score 1.12.
Knock-down of LIG3 #2 gave: total luciferase, z-score -0.0827.
LIG3 #3 scored total luciferase, z-score -0.748.
SHISA4 #1 showed total luciferase, z-score 0.275.
After knock-down of SHISA4 #2 the results were total luciferase, z-score -0.813.
After knock-down of SHISA4 #3 the results were total luciferase, z-score -1.72.
With knock-down of UBR3 #1, the record shows total luciferase, z-score 2.24.
UBR3 #2 showed total luciferase, z-score -0.73.
Knock-down of UBR3 #3 gave: total luciferase, z-score 1.19.

Targets listed so far whose gene name begins with U or u:
UBR3 #1 | total luciferase, z-score: 2.24
UBR3 #2 | total luciferase, z-score: -0.73
UBR3 #3 | total luciferase, z-score: 1.19
